Inconclusive results, whose numbers are uncertain, are shown with a selection of clear calls. For some assays here: Potencies of inconclusive entries are doubtful fits and often do not repeat. For some assays here: A note “side channel” means that the fit belongs to a control or component signal, not to the main read-out. The source made the active and inactive calls. Unless noted, the call rests on the fitted dose curve.
Experiments:
[1] = Cell Viability - LYMP2-005 (AID 967; active means well fitted curve in the direction sought with a large enough effect; inconclusive means small, poorly fitted or top-dose-only effect, or another doubt; inactive means no such curve, though single readings can be large; an effect the other way counts as inactive or inconclusive;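 further: plate controls were DMSO only for no effect and 92 µM tetraoctylammonium bromide control for full effect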); settings: LYMP2-005 lymphoblastoid cell viability; series mostly up to 92.2 µM
Procedure, shortened: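 Human lymphoblastoid LYMP2-005 cells, 2,500 per well in complete medium, rested 5 h at 37C then compound-treated 24 h at 37C. Intracellular ATP read by CellTiter-Glo luminescence after 30 min at room temperature; AC50 from Hill-equation fits of concentration-response data.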

[2] = Cell Viability - LYMP2-010 (AID 981; active means well fitted curve in the direction sought with a large enough effect; inconclusive means small, poorly fitted or top-dose-only effect, or another doubt; inactive means no such curve, though single readings can be large; an effect the other way counts as inactive or inconclusive;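 further: cells exposed to compound for 24 hours at 37 °C; on the % scale 0 is the no-effect control and ±100 the full control effect; nearly all actives have a fitted effect of over 55% in size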); settings: LYMP2-010 lymphoblastoid cell viability, qHTS; series mostly up to 92.2 µM
Procedure, shortened: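 Steps: seed 2500 LYMP2-010 cells per well; incubate 5 hr at 37 C; add compound; incubate 24 hr at 37 C; add CellTiter-Glo, wait 30 min at room temperature; read luminescence. Concentration-response fitted to Hill equation for AC50.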

[3] = target: Bile acid receptor (Homo sapiens) (UniProt Q96RI1); test: qHTS assay for small molecule antagonists of farnesoid X receptor signaling (AID 588526); settings: HEK293T FXR-UAS-bla, beta-lactamase ratio, antagonist mode; activity change, negative = inhibition: at 76.7 µM (top of the series); further: potency means the concentration at half of the fitted maximal effect
Procedure, shortened: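 Concentration-response titrations were fitted to the Hill equation for half-maximal inhibition and maximal response, with data normalised to 50 uM chenodeoxycholic acid and DMSO control wells. Cells: FXR-UAS-bla HEK293T, dialyzed FBS.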

[4] = target: Peroxisome proliferator-activated receptor gamma (Homo sapiens) (UniProt P37231); test: qHTS assay for small molecule agonists of peroxisome proliferator-activated receptor gamma signaling (AID 588536; active means well fitted curve in the direction sought with a large enough effect in the signal ratio, with a control signal flat, not every such curve was filed as active; inconclusive means small, poorly fitted or top-dose-only effect, or effect the other way, or a change in a side signal; inactive means no such curve, though single readings can be large or run the other way; the % refers to the signal ratio;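 further: 0% = DMSO basal wells and 100% = rosiglitazone at 2 µM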); settings: HEK293 PPARg-UAS-bla, beta-lactamase ratio, 16 h; activation: at 76.7 µM (top of the series), percent of rosiglitazone response, DMSO as zero
Procedure, shortened: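 Beta-lactamase reporter read-out: CCF4 fluorescence (ex 405, em 460/530 nm) after 2 h at RT. HEK293 GeneBLAzer cells were treated for 16 h at 37 C. Hill fits gave EC50 and efficacy versus 2 uM rosiglitazone (100%) and DMSO (0%).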

[5] = target: Vitamin D3 receptor (Homo sapiens) (UniProt P11473); test: qHTS assay for small molecule antagonists of vitamin D receptor signaling (AID 588541); settings: HEK293T VDR-UAS-bla, beta-lactamase ratio, antagonist mode; activity change, negative = inhibition: at 76.7 µM (top of the series);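 further: receptor activated by calcitriol during compound treatment; on the % scale 0 is the no-effect control and ±100 the full control effect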

COc1cc(C=O)ccc1O
Potency [1]: inactive
Potency [2]: inactive
Potency [3]: inconclusive: 0.7 nM [side channel, falling, full curve, poor fit]
activation [4]: inconclusive: 23.4%
activity change, negative = inhibition [5]: inconclusive: -2.6%
